Test results taken from article PMC6946813.
Results are given in words; binding and its absence hold for the method and conditions named. In cells and extracts the contact can be indirect. Some results given as binding are weak or reduced against the parent protein; the word gives no strength.

Protein sequences, listed by entry. Tags and fused reporters are not part of them.
UniProt Q12905: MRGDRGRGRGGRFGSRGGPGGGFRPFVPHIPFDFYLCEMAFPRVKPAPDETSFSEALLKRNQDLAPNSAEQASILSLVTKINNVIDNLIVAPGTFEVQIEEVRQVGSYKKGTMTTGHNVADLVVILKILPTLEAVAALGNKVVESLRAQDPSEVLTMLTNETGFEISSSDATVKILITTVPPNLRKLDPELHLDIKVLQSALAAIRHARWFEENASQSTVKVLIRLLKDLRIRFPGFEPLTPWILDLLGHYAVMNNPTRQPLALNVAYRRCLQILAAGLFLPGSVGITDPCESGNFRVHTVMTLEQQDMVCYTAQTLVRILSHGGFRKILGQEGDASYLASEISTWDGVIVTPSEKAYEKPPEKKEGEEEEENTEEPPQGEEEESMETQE

Molecular target: T1, NONO (human (endogenous in RKO, Colo320, SW620, LS174T, DLD-1)) (UniProt Q15233)
T1 sequence: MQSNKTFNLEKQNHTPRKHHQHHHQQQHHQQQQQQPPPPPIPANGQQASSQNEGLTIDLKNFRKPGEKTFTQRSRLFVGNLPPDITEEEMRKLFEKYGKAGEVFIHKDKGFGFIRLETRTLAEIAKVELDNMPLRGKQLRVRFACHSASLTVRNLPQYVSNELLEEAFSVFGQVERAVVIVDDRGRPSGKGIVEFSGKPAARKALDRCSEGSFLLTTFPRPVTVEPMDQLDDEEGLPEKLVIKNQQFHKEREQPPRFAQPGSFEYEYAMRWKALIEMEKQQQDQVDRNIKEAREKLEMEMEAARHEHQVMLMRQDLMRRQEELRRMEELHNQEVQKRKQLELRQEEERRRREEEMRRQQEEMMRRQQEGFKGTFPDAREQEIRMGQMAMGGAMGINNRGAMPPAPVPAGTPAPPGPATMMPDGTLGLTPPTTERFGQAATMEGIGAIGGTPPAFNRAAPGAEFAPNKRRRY
Assay: co-IP; nuclear lysate (1 mg) of RKO and Colo320 cells, antibody overnight at 4°, Protein G and A DynaBeads, washes with 50 mM Tris-HCl pH 7.4, 200 mM NaCl, 2 mM EDTA, 1% Triton X-100, immunoblot; also in BCL9 knockout RKO clones and in RKO cells treated 2 h with vehicle or verapamil

- binding: binds
Substance: ILF2 (from UniProt Q12905 1-390)
